The list does not hold the whole screen: it gathers tests that were run many times, whatever their T/C, doses with no T/C, and many T/C values between a quarter and a half above the control. Further doses and runs are listed elsewhere. T/C gives the treated animals as a percentage of the vehicle group. Schedules are NCI's codes, read here as Q, the interval in days (D) or hours (H), X, the number of doses. Some doses have a count of surviving animals in place of a T/C: the source holds a T/C of zero for them, seemingly a mark for toxic or unscored doses. Counts of survivors are from the toxicity check (mostly the fifth day) where no day follows; animals may have died later. Some entries were tested several times; the values are given in rising order.
System: BDF1 mice, colon carcinoma 38 sc, T/C %
Assay: NCI In Vivo Anticancer Drug Screen. Data for tumor model Colon Carcinoma 38 (subcutaneous) in B6D2F1 (BDF1) mice
Details: T/C endpoint: median tumor weight (est.), schedule: Q07DX002 (ip), higher T/C = larger tumour; for T/C: evaluated on day 20
Summary of the method: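 Mice with transplanted tumors are treated with compound or vehicle. Survival or tumor size is then measured in both groups. The ratio of treated to control gives the reported figure.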

[1] = dose: 50.0 mg/kg/injection, vehicle: saline
[2] = dose: 400.0 mg/kg/injection, vehicle: saline with Tween-80
[3] = dose: 400.0 mg/kg/injection, vehicle: saline
[4] = dose: 200.0 mg/kg/injection, vehicle: saline with Tween-80

Compound: COc1cccc2c1C(=O)c1c(O)c3c(c(O)c1C2=O)CC(O)(/C(C)=N/NC(=O)CCCCC(=O)N/N=C(\C)C1(O)Cc2c(O)c4c(c(O)c2C(OC2CC(N)C(O)C(C)O2)C1)C(=O)c1c(OC)cccc1C4=O)CC3OC1CC(N)C(O)C(C)O1 (centres undefined)
- survivor count [1]: 0 of 10 on day 20
- survivor count (dose: 50.0 mg/kg/injection, vehicle: water): 0 of 10 on day 20

Compound: Nc1ccc2nc3c4ccccc4c(O)n3nc2c1
- survivor count (dose: 800.0 mg/kg/injection, vehicle: saline with Tween-80): 0 of 10 on day 20

Compound: CN=C(N)N/N=C(\C)c1ccc2c(c1)Cc1ccccc1-2
- survivor count [2]: 0 of 10 on day 20

Compound: CCCCCC(O)C1C(=O)OC(C)C(O)/C=C/C=C/C=C/C=C\C=C(\C)C(O)CC(O)CC(O)CC(O)CC(O)CC(O)CC1O (centres undefined)
- T/C (dose: 10.0 mg/kg/injection, vehicle: saline): 135 % of control

Compound: C1OC1C1CO1 (centres undefined)
- survivor count (dose: 40.0 mg/kg/injection, vehicle: saline): 0 of 10 on day 20
- survivor count (dose: 80.0 mg/kg/injection, vehicle: saline): 0 of 10 on day 20 and 3 of 10 on day 20

Compound: CN(CCN(C)C(=O)CCOS(C)(=O)=O)C(=O)CCOS(C)(=O)=O
- survivor count [3]: 4 of 10 on day 20 and 5 of 10 on day 20

Compound: ClC1=C(Cl)C2(Cl)C3C(Cl)C(Cl)CC3C1(Cl)C2(Cl)Cl (centres undefined)
- T/C (dose: 25.0 mg/kg/injection, vehicle: other): 133 % of control
- survivor count (dose: 100.0 mg/kg/injection, vehicle: other): 6 of 10 on day 20
- survivor count (dose: 200.0 mg/kg/injection, vehicle: other): 1 of 10 on day 20 and 4 of 10 on day 20
- survivor count (dose: 400.0 mg/kg/injection, vehicle: other): 0 of 10 on day 20 and 2 of 10 on day 20
- survivor count (dose: 800.0 mg/kg/injection, vehicle: other): 0 of 10 on day 20

Compound: CN=C(N)N/N=C(\C)c1ccc2oc3ccc(/C(C)=N/NC(N)=NC)cc3c2c1
- survivor count [4]: 5 of 10 on day 20
- survivor count [2]: 0 of 10 on day 20

Compound: O=c1[nH]c(=O)n(C2CC(O)C(CO)O2)cc1Br (centres undefined)
- T/C (dose: 50.0 mg/kg/injection, vehicle: Klucel (hydroxypropylcellulose) (HPC)): 148 % of control
- T/C (dose: 800.0 mg/kg/injection, vehicle: Klucel (hydroxypropylcellulose) (HPC)): 134 % of control

Compound: CN(N=O)C(N)=O
- survivor count [1]: 6 of 10 on day 20
- survivor count (dose: 100.0 mg/kg/injection, vehicle: saline): 0 of 10 on day 20

Compound: C[CH2][Sn]1([CH2]C)[O]OC(c2ccccc2)[O]1 (centres undefined)
- T/C (dose: 3.12 mg/kg/injection, vehicle: saline with Tween-80): 135 % of control
- survivor count (dose: 50.0 mg/kg/injection, vehicle: saline with Tween-80): 6 of 10 on day 20

Compound: Cc1c2cc(Cl)c3ccccc3c2c[n+]2ccccc12
- T/C (dose: 25.0 mg/kg/injection, vehicle: saline with Tween-80): 149 % of control
- survivor count [4]: 6 of 10 on day 20
- survivor count [2]: 0 of 10 on day 20

Compound: CN=S(=O)(OCCCCCOS(=O)(=NC)c1ccc(C)cc1)c1ccc(C)cc1 (centres undefined)
- survivor count [4]: 3 of 10 on day 20
- survivor count [2]: 0 of 10 on day 20

Compound: CCCCCCCC(=O)OCC(=O)[C@]1(O)Cc2c(O)c3c(c(O)c2[C@@H](OC2CC(N)C(O)C(C)O2)C1)C(=O)c1c(OC)cccc1C3=O (some centres undefined)
- survivor count (dose: 16.0 mg/kg/injection, vehicle: suspension in saline): 6 of 10 on day 20
- survivor count (dose: 32.0 mg/kg/injection, vehicle: suspension in saline): 0 of 10 on day 20

Compound: CCC(C(=O)O)C(=O)O.[NH2-].[NH2-].[Pt+2]
- survivor count [3]: 1 of 10 on day 20

From PubChem BioAssay AID212 (DTP/NCI, 2004)
